The record followed here is publication doi:10.1101/2022.07.27.501694.

Amino acid sequences for entries named in this document (tags omitted). A change or cut given only in a name is not applied to a line headed by its entry. Chains listed by the source or under a name are the forms on record and can include a tag or linker. Residues count along the entry.
UniProt Q8NHJ6: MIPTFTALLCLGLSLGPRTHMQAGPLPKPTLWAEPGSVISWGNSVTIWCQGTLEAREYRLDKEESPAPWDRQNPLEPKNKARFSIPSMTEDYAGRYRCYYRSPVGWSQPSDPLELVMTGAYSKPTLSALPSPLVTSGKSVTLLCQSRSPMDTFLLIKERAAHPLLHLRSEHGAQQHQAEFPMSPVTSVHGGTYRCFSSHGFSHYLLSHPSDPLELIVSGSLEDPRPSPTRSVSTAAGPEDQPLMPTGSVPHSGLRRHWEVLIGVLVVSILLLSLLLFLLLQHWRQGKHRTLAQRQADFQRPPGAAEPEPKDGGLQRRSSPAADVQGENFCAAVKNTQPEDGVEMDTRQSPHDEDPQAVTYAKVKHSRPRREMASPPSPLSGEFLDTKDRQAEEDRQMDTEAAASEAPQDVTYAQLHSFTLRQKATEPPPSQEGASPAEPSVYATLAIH
HA-tagged LILRB4: residues 22-448 of Q8NHJ6
UniProt O00214: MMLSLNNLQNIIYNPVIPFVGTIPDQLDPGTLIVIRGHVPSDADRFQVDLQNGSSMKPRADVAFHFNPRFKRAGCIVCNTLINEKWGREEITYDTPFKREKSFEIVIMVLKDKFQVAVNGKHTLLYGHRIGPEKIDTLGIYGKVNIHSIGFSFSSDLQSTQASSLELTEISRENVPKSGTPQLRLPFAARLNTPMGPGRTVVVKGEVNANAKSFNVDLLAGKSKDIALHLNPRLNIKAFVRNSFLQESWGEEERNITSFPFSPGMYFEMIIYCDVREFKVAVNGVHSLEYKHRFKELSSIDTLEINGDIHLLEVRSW

Experiment [1] has as its target Fc-tagged LILRB4 ECD protein (UniProt Q8NHJ6). Kind of experiment: cross-linking.
The target in experiment [2] is HA-tagged LILRB4 (UniProt Q8NHJ6). Nature of the experiment: flow cytometry on cells. Background: In flow cytometry, cells or beads pass a laser one at a time.
Experiment [3] concerns the target recombinant protein Galectin-8 (human) (UniProt O00214). Kind of experiment: ELISA. On the technique in general: ELISA stands for enzyme-linked immunosorbent assay.
Experiment [4] has the same target. Nature of the experiment: ELISA. The source holds these as a separate data set.
The target in experiment [5] is HA-tagged LILRB4 (UniProt Q8NHJ6). Kind of experiment: co-IP.

Like-named read-outs stand apart in the source and are kept apart here. No constants are given. Whether binding was seen depends on the method and setting. For some assays here: Binding seen in cells or lysates may run through a third protein. Some binding calls cover weakened binding; strength is not graded here.

As to “recombinant protein Galectin-8 (from UniProt O00214 1-317) (ligand)”, the binding entry in experiment [1] and in experiment [2] was “binds” throughout. With “Fc-tagged LILRB4 ECD protein (from UniProt Q8NHJ6 22-259) (Fc fusion)”, the binding result in experiment [3] and in experiment [4] was “binds” in each case. Consider “Flag-tagged Galectin 8 (from UniProt O00214 1-317)”, for which, in experiment [5], the binding result is “binds”.
